Test results reported in publication PMC8305094.
These are yes or no findings as the source states them, for the method shown. In cells and extracts the contact can be indirect. Some results given as binding are weak or reduced against the parent protein; the word gives no strength.

Amino acid sequences for entries named in this document (tags omitted). A change or cut given only in a name is not applied to a line headed by its entry. Chains listed by the source or under a name are the forms on record and can include a tag or linker. Residues count along the entry.
UniProt Q15796: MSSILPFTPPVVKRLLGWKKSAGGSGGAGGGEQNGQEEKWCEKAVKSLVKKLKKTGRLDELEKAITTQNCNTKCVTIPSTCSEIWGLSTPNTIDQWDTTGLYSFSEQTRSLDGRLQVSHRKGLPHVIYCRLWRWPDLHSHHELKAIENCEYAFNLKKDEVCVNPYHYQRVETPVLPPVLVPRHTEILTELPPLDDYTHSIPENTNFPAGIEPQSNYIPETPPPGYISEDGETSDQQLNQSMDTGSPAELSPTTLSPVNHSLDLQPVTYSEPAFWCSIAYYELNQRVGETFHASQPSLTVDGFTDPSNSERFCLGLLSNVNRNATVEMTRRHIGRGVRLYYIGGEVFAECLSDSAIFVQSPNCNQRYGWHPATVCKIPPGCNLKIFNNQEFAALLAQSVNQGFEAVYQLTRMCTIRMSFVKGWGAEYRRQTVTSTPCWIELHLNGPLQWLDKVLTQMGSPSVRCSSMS
FLAG-tagged MH1, Smad2 (1-185): residues 1-185 of Q15796
UniProt O35613: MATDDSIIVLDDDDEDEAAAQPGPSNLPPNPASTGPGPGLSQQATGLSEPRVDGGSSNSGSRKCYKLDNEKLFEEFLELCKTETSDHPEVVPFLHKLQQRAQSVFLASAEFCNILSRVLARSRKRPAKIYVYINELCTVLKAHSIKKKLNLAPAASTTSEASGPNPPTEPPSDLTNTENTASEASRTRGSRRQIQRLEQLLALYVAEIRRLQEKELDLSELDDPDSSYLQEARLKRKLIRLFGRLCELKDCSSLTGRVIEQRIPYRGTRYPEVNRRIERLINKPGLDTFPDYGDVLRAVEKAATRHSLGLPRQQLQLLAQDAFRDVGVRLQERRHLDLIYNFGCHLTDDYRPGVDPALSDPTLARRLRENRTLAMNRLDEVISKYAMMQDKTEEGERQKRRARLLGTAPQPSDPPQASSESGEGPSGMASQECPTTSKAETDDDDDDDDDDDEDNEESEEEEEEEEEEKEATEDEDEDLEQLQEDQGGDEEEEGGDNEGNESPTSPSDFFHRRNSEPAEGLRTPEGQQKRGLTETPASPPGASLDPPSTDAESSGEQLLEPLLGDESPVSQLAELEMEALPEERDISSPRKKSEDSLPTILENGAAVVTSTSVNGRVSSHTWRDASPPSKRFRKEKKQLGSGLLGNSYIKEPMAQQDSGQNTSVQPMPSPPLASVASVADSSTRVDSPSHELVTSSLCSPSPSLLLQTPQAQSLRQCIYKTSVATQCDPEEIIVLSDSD
UniProt Q9UER7: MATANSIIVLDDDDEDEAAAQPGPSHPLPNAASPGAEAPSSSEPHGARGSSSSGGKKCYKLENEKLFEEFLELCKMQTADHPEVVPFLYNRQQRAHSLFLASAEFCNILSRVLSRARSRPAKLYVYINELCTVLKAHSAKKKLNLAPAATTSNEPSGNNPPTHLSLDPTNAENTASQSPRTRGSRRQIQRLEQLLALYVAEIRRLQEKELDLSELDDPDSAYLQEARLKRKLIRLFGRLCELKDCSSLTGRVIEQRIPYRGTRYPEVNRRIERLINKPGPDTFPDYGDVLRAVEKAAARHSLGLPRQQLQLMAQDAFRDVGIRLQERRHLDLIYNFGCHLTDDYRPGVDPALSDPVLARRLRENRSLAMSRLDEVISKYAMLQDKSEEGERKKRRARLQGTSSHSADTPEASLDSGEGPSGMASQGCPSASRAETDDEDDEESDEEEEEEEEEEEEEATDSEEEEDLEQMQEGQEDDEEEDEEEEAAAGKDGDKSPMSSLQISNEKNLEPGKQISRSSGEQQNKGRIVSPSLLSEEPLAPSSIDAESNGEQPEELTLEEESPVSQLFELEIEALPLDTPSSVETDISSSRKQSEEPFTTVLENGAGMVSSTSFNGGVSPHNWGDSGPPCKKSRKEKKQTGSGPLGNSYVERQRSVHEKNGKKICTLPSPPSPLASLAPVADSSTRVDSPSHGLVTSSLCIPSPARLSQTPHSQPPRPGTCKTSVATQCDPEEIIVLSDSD

Assays:
[1] = target: Flag-Smad2, in FL83B cells (UniProt Q15796); test: co-IP; FL83B cells transfected with Flag-Smad2, with or without TGF-β; lysates precipitated with anti-Flag beads; blot with Daxx, p-Smad2 and Smad2 antibodies
[2] = target: FLAG-tagged MH1, Smad2 (1-185) (UniProt Q15796); test: co-IP; HA-Daxx cotransfected with Flag-Smad2 or Flag-MH1 in HEK 293T cells; lysis buffer 50 mM Tris-Cl pH 7.5, 120 mM NaCl, 0.5% NP-40; precipitated with anti-FLAG beads or anti-HA antibody and protein A agarose; Western blot
[3] = target: FLAG-tagged Smad2 (full-length, WT), in HEK 293T (UniProt Q15796); test: as above

binding [1] | Substance | binding [2] | binding [3]
binds | endogenous Daxx of FL83B cells (from UniProt O35613 1-739) |  | 
 | HA-tagged Death-associated protein 6 (Daxx) (from UniProt Q9UER7 1-740) | binds | binds
